Test results from patent US7485434B2, “Method for screening compounds for those that modulate transducers of regulated CREB activity” (The Salk Institute for Biological Studies, priority 2005, dated 2009).
At least one compound was matched to its structure with a doubt left. Some of these results come from one statement about several compounds together.

What was measured:
phospho (Ser133) CREB = assay: Western blot of phospho (Ser133) CREB levels in HIT cells; assay type: cell-based, Hamster
Experimental: FIG. 1C is a Western blot assay of phospho (Ser133) CREB levels in HIT cells following treatment with KCl (45 mM), forskolin (10 μM), or both together for 30 minutes.
FIG. 9 illustrates the time course (in minutes) of CREB Ser133 phosphorylation in HIT cells following treatment with forskolin (10 μM) or KCl (45 mM). […] Immunoreactive bands correspond to phospho (Ser133) CREB (top) and phospho (Ser63) ATF1 (bottom).
Western blot analyses were conducted on whole cell, cytoplasmic and nuclear extracts with the following rabbit polyclonal antisera: phospho (Ser133) specific affinity purified 5322 and phospho (Ser133) specific antibody from Rockland Immunochemicals, Gilbertsville, Pa.), non-discriminating CREB (244), phosphor (Ser171) CREB, TORC2, pan-TORC, SIK1 and SIK2. 14-3-3 and Hsp90 antibodies were from Santa Cruz (Santa Cruz, Calif.). FLAG-M2 (Sigma) and GAL4 (Santa Cruz) monoclonal antibodies were used at 1:2000 and 1:1000 dilutions, respectively. For quantitative western blotting, goat anti-mouse-800 nm fluorophore conjugate to detect FLAG-M2 was used at 1:40,000 dilution according to manufacturer's instructions (Licor) prior to analysis using the Odyssey detection system. GST-pulldowns were performed as described (Asahara et al., 2001). […]

[1] = test system: CREB:CBP complex (KID:KIX interaction); assay: Mammalian two-hybrid assay GAL4-KID / KIX-VP16 in HIT cells; assay type: cell-based, Hamster; details: combination
GAL4-CREB = GAL4-CREB transient GAL4 luciferase reporter assay in HIT cells; assay type: cell-based, Hamster; details: lacking bZIP domain (aa. 284-341)
NR4A2 promoter = assay: Chromatin immunoprecipitation assay of HEK293T cells on NR4A2 promoter; assay type: cell-based; details: forskolin 30 minutes
TORC2 [2] = assay: TORC2 phosphorylation in HIT cells (Western blot, 32P-labeling); assay type: cell-based, Hamster
TORC:14-3-3 complexes = assay: Co-immunoprecipitation of TORC with endogenous 14-3-3 proteins; assay type: cell-based
From the text: FIGS. 5A-5D illustrate that 14-3-3 proteins associate with and repress TORC activity. Specifically, FIG. 5A, top panel, presents the results of a coimmunoprecipitation assay of Flag-TORC1 with endogenous 14-3-3 proteins in HEK293T cells. The effect of forskolin (F) treatment on the TORC 1: 14-3-3 association is shown. […] FIG. 5A, bottom left panel, is a Western blot assay of 14-3-3 proteins recovered from TORC or control 1 gG immunoprecipitates, illustrating the effect of forskolin treatment on endogenous TORC: 14-3-3 complexes in PC12 and HEK293T cells. Input levels of 14-3-3 and TORC proteins are shown. […] FIG. 5A, bottom right panel, illustrates the kinetics of TORC2 dissociation from endogenous 14-3-3 proteins in response to forskolin treatment of HEK293T cells. The levels of Flag-tagged TORC 2 (FLAG-T2) recovered from flag immunoprecipitates at each time point is shown below.
Rabbit pan-TORC (raised against 1-42 of human TORC1) and TORC2 selective rabbit polyclonal antiserum (raised against amino acids 454-607 of mouse TORC2) were generated as previously described (Conkright et al., 2003a)). Whole cell protein was extracted from cultured HEK293T, HIT, and MIN6 cells in Laemmli SDS sample buffer. Alternatively, whole cell protein was extracted from liver tissue or primary hepatocytes in SDS-urea-lysis buffer. 10-20 μg of protein was separated by 8, 10 or 4-20% SDS-PAGE and transferred to PVDF membrane (Millipore Corp., Bedford, Mass.). Alternatively, 50-100 μg of protein was loaded onto a 6% SDS-polyacrylamide gel and blotted onto nitrocellulose membrane (Schleicher & Schuell, Keene, N.H.). Chromatin immunoprecipitation and co-immunoprecipitation experiments were performed as described (Conkright et al., 2003a).
Co-immunoprecipitation studies were performed to confirm the proteomic results and to explore the potential role of 14-3-3 proteins in regulating TORC activity. […]

[3] = test system: TORC associated kinase activity; assay: In vitro kinase assay of TORC2 immunoprecipitates from HEK293T cells; assay type: cell-based; details: immunoprecipitates from cytoplasmic fractions of HEK293T cells
TORC2 [4] = assay: Cellular localization of TORC2 in primary rat hepatocytes; assay type: cell-based; details: wild-type TORC2 adenovirus
Experimental: FIG. 20C illustrate the effect of AICAR and SIK1 on cellular localization of wild-type or Ser171 Ala TORC2 in primary rat hepatocytes. Cells were infected with adenoviruses for HA-tagged wild-type or mutant TORC2 and SIK1 as indicated. Infected cells were exposed to FSK and AICAR for 30 minutes. TORC2 localization was examined with anti-HA antiserum. Cells were counterstained with DAP1 to visualize nuclei.
Based on its ability to promote Ser171 phosphorylation, AMPK might be expected to inhibit nuclear entry of TORC2 in cells exposed to FSK. […] Confirming the pivotal role of Ser171 in this regard, mutant Ser171Ala TORC2 remained constitutively nuclear under both conditions.

AMPK family members = assay: Gene profiling assay of primary mouse hepatocytes; assay type: cell-based

## C=C[C@@]1(C)CC(=O)[C@]2(O)[C@@]3(C)[C@@H](O)CCC(C)(C)[C@@H]3[C@H](O)[C@H](OC(C)=O)[C@@]2(C)O1 [forskolin, Forskolin]
Phospho (Ser133) CREB; forskolin 10 μM or KCl 45 mM
  levels of CREB Ser133 phosphorylation: increased levels of CREB Ser133 phosphorylation
Phospho (Ser133) CREB; forskolin plus KCl
  phospho (Ser133) CREB levels, co-stimulation relative to forskolin alone: had no additional effect on phospho (Ser 133) CREB levels
[1]
  KID:KIX complex formation, forskolin with KCl: rescued KID:KIX complex formation, albeit at similar levels to forskolin alone
GAL4-CREB
  response of truncated GAL4-CREBΔbZIP polypeptide: only a modest response
NR4A2 promoter
  recruitment of CBP and TORC2 to NR4A2 promoter: both were recruited to the promoter
TORC2 [2]; co-stimulation KCl plus forskolin, 30 minutes
  endogenous TORC2 phosphorylation (Western blot): promoted extensive TORC2 dephosphorylation
TORC2 [2]; flag-tagged TORC2
  time to dephosphorylation of in vivo 32P-labeled TORC2: ≤ 10 min
TORC2 [2]; forskolin and KCl
  phospho-TORC2 levels (32P), co-stimulation: reduced phospho-TORC2 levels further
TORC:14-3-3 complexes; Flag-TORC1 and endogenous TORC, HEK293T and PC12 cells
  TORC:14-3-3 interactions: disrupted
TORC:14-3-3 complexes; Flag-TORC2, HEK293T
  time of maximal reduction of TORC2:14-3-3 interaction: 30 to 60 min
TORC:14-3-3 complexes; Flag-TORC2, HEK293T, within 10 minutes of forskolin treatment
  TORC2:14-3-3 interaction diminished: about half
[3]
  TORC associated kinase activity: potently inhibited
TORC2 [4]
  translocation of TORC2: triggered translocation of wild-type TORC2
AMPK family members
  effect on mRNA levels of AMPK family members: had no effect on mRNA levels for any of the 12 AMPK family members
